In test [1] the target is human CD47 (human) (UniProt Q08722). Put plainly: cell-based ELISA on OV10 hCD47 cells and flow cytometry on hRBCs. (In an ELISA, binding on a coated surface is turned into a signal by an enzyme label.)
In test [2] the target is recombinant human His-CD47 (AcroBiosystems) (human) (UniProt Q08722). Put plainly: solid-phase ELISA on adsorbed His-CD47 at pH 6 or pH 8 (Table 6, body missing).

Amino acid sequences for entries named in this document (tags omitted). A change or cut given only in a name is not applied to a line headed by its entry. Residues count along the entry.
UniProt Q08722: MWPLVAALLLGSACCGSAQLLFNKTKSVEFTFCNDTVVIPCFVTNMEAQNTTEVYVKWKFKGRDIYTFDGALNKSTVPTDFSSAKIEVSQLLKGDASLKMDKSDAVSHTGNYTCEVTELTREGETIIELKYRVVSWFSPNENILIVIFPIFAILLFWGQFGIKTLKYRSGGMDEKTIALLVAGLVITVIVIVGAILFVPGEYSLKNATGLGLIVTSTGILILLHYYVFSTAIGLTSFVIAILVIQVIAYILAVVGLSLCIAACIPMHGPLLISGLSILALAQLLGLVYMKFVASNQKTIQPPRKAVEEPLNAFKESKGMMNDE
human CD47: residues 19-323 of Q08722
recombinant human His-CD47 (AcroBiosystems): residues 19-139 of Q08722

Results are given in words; binding and its absence hold for the method and conditions named. Some entries that bind do so weakly or less than the wild type.

For 2 molecules, binding results are on record in EP3600393A1.

B1: VLX8 IgG4PE xi (antibody, V domains shown)
VH: EVQLQQSGPELMKPGASVKISCKASGYSFTNYYIHWVNQSHGKSLEWIGYIDPLNGDTTYNQKFKGKATLTVDKSSSTAYMRLSSLTSADSAVYYCARGGKRAMDYWGQGTSVTVSS
VL: DIQMTQTTSSLSASLGDRVTISCRASQDISNYLNWYQQKPDGTVKLLIYYTSRLYSGVPSRFSGSGSGTDYSLTISNLEQEDIATYFCQQGNTLPWTFGGGTKLEIKR
As to B1, in test [1], the binding result is “binds”.

B2: murine VLX9 antibody (antibody, V domains shown)
VH: QVQLQQFGAELAKPGASVQMSCKASGYTFTNYWIHWVKQRPGQGLEWIGYTDPRTDYTEYNQKFKDKATLAADRSSSTAYMRLSSLTSEDSAVYYCAGGGRVGLGYWGHGSSVTVSS
VL: DVFMTQTPLSLPVSLGDQASISCRSSQNIVQSNGNTYLEWYLQKPGQSPKLLIYKVFHRFSGVPDRFSGSGSGTDFTLKISRVEAEDLGVYYCFQGSHVPWTFGGGTKVEIK
In the case of B2, the binding entry in test [2] is recorded as “binds”.
